The supplement of paper PMC6411743
± gives the standard deviation of the averaged measurements. The entries are a selection whose mix differs from that of the whole data set.

Protein sequences, listed by entry. Tags and fused reporters are not part of them. Lines headed by an entry give the natural chain unless they say otherwise; changes in a name come on top.
UniProt O75718: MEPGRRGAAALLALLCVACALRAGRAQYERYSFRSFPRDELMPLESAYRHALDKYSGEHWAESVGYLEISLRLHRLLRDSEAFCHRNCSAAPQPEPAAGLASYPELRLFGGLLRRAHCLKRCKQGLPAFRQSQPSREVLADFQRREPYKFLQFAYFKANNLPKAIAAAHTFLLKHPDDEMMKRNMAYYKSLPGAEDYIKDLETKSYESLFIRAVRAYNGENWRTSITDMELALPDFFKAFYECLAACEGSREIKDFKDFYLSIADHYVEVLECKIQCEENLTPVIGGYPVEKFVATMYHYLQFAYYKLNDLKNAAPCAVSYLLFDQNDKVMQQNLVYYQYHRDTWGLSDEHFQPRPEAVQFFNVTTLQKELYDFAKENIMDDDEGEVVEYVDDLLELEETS
UniProt P31943: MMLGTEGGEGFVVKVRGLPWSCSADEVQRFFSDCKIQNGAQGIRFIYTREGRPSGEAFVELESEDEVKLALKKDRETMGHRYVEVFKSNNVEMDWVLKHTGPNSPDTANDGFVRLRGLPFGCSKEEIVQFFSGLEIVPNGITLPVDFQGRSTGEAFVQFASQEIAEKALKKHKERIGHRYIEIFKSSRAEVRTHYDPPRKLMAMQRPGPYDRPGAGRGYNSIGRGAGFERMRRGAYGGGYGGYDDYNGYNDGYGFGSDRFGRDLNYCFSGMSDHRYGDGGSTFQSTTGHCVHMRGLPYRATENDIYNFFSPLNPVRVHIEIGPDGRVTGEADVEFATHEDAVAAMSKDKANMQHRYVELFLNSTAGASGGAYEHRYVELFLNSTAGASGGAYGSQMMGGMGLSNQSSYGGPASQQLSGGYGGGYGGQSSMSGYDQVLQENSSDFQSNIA
UniProt O14662: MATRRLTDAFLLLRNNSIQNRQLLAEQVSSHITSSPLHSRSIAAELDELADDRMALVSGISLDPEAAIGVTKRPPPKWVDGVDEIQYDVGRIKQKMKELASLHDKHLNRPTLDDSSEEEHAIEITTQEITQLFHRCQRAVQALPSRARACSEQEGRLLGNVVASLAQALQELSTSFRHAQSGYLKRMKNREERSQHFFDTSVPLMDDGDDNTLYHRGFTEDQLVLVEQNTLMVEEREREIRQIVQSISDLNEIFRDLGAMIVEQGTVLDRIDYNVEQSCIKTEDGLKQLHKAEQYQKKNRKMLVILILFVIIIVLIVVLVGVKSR
UniProt Q14141: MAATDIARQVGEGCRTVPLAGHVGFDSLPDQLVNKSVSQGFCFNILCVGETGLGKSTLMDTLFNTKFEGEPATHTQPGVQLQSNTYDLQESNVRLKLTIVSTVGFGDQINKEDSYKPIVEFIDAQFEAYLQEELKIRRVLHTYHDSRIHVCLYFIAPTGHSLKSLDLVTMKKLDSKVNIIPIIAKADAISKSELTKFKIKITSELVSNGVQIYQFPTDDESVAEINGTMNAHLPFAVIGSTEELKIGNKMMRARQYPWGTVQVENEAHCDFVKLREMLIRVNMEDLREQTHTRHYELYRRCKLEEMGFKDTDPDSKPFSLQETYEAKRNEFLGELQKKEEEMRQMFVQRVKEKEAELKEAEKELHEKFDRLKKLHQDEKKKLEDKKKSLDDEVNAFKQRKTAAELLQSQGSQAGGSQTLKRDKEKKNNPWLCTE
UniProt Q9P2W9: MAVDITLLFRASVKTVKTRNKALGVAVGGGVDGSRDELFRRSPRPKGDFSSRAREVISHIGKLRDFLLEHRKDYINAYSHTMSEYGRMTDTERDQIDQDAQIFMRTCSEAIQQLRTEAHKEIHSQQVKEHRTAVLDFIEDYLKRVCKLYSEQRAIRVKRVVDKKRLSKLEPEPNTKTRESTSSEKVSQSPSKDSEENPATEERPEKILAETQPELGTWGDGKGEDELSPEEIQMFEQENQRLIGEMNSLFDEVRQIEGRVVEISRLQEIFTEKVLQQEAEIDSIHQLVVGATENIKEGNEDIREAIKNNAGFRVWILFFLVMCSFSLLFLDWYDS
UniProt Q9Y6E2: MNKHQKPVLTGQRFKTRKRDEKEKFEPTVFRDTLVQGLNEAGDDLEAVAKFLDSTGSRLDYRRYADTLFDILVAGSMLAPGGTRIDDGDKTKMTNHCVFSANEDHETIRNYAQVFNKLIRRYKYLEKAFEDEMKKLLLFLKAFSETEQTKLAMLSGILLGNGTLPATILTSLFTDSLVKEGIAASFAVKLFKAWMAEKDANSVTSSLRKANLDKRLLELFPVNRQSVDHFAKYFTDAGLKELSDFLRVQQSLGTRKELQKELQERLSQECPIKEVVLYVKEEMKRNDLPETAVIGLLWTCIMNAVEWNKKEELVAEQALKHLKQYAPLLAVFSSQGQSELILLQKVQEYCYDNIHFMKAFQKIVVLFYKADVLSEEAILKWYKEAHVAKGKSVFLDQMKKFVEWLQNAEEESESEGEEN
UniProt Q9Y6K9, whole entry: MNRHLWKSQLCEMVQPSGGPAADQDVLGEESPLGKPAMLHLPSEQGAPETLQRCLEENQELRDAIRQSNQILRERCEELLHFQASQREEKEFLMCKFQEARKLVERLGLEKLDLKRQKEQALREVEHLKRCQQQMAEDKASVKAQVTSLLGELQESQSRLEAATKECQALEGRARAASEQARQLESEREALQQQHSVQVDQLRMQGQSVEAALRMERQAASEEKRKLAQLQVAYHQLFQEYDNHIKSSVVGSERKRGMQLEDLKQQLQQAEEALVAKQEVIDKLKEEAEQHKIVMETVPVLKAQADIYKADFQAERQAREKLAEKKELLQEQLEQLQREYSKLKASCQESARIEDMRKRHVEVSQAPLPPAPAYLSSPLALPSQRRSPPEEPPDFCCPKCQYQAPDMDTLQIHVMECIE
UniProt P51617, whole entry, looked up: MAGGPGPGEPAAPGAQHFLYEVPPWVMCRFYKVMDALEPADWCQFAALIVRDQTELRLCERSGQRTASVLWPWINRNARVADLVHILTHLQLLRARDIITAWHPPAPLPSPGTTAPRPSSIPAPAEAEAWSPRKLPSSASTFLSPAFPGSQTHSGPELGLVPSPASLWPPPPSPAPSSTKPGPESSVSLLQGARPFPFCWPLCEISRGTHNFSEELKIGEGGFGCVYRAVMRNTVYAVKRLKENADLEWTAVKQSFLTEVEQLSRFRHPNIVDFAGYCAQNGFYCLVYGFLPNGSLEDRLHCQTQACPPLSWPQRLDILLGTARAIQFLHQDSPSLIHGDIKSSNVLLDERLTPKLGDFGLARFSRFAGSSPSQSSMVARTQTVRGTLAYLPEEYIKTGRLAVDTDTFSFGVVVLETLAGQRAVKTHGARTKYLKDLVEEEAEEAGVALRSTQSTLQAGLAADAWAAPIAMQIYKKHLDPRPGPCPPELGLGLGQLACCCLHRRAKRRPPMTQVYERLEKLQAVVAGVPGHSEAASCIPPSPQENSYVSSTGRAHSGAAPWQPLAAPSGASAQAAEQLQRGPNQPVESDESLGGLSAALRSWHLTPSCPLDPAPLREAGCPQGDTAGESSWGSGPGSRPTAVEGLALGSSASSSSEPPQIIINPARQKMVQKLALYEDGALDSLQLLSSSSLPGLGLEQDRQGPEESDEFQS
UniProt Q14919: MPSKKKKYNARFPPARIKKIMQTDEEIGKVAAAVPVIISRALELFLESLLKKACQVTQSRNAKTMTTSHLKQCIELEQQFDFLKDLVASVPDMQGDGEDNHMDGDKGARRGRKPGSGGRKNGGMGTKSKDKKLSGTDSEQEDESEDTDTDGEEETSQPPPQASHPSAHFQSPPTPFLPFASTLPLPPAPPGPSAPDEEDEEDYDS
UniProt Q16563: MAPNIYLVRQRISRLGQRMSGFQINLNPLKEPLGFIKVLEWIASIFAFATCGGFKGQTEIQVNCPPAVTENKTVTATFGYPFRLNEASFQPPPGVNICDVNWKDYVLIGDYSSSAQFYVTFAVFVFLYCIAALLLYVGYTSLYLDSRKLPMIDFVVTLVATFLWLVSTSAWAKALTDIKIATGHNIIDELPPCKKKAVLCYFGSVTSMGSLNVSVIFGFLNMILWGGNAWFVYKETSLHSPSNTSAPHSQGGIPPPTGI
UniProt A6NIH7: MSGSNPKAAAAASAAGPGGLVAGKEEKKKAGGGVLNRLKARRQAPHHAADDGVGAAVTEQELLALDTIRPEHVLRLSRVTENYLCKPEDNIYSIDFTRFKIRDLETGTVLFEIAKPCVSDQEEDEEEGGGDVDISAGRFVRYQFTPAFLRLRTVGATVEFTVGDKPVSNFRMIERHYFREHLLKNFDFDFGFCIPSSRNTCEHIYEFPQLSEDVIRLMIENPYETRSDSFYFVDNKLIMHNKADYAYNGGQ
UniProt B0I1T2: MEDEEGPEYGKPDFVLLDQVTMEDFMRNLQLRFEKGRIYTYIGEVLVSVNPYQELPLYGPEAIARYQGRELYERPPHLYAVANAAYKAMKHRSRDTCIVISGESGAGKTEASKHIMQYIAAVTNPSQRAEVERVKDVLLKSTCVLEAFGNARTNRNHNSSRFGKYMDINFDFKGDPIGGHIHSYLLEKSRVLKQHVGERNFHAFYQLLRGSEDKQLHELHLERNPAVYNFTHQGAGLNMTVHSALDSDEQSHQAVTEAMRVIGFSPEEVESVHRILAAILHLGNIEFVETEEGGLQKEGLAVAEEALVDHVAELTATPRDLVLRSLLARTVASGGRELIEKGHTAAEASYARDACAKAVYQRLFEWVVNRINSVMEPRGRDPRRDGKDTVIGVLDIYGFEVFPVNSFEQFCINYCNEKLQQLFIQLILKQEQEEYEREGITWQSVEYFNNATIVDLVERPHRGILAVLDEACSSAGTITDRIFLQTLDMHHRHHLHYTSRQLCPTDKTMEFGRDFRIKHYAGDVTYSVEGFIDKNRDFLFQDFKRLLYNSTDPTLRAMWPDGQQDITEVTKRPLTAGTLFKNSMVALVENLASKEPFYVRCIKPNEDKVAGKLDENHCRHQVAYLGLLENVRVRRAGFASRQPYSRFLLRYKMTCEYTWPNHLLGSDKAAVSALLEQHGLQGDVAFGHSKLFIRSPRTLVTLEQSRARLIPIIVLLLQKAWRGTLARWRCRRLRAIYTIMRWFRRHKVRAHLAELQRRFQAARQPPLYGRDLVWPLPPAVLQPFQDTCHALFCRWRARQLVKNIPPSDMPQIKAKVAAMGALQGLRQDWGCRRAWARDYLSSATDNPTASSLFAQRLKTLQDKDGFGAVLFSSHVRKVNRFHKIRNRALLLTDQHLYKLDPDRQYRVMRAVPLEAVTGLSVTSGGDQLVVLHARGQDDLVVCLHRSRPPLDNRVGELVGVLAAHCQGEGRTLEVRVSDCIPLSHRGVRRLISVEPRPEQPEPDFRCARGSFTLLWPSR
UniProt Q96IZ7: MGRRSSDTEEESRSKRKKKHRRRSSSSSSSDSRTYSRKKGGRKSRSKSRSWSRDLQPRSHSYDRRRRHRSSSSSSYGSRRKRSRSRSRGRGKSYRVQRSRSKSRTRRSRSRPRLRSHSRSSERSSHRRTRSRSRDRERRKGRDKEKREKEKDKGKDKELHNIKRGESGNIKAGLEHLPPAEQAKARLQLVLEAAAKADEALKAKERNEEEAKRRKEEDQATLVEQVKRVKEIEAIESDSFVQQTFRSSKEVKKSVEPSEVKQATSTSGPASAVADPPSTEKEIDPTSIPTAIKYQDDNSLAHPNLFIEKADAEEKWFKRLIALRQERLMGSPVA
UniProt Q93045: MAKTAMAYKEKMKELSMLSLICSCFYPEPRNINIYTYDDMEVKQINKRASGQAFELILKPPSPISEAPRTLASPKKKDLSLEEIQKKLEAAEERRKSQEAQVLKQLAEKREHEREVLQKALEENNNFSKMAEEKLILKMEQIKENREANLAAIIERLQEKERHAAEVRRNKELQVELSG

Compound: Nc1ncnc2c1ncn2[C@@H]1O[C@H](COP(=O)(O)OP(=O)(O)NP(=O)(O)O)[C@@H](O)[C@H]1O [adenylyl imidodiphosphate]
Test: NP40-soluble protein abundance relative to vehicle (solubility fold change) (ratio); higher = more soluble protein in presence of AMP-PNP
How it was run: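 Jurkat crude lysate prepared with a Dounce homogeniser was treated at eight concentrations spanning 0.1 to 10 mM, 10 min at room temperature then 3 min at 37 °C. Solubilisation with 0.8% NP40 and benzonase and ultracentrifugation preceded TMT labelling of the supernatant for LC-MS/MS. Fold change against the detergent-processed vehicle was determined per replicate from vsn-normalised intensities, across three independent experiments.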

Target | NP40-soluble protein abundance (concentration: 1mM) | NP40-soluble protein abundance (concentration: 2mM) | NP40-soluble protein abundance (concentration: 4mM) | NP40-soluble protein abundance (concentration: 6mM) | NP40-soluble protein abundance (concentration: 8mM) | NP40-soluble protein abundance (concentration: 10mM)
C9JP16 and related entries (UniProt O75718) | 1.01 ± 0.025 | 1.05 ± 0.0041 | 1.07 ± 0.051 | 1.02 ± 0.029 | 1.07 ± 0.034 | 1.13 ± 0.041
D6RHH4 and related entries (UniProt P63244) | 0.947 ± 0.042 | 0.829 ± 0.14 | 0.903 ± 0.1 | 0.851 ± 0.03 | 0.843 ± 0.041 | 0.818 ± 0.089
A8MX75 and related entries (UniProt P18074) | 0.981 ± 0.039 | 0.923 ± 0.084 | 1 ± 0.038 | 0.969 ± 0.042 | 1 ± 0.027 | 0.926 ± 0.023
B4DR61 and related entries (UniProt P61619) | 0.941 ± 0.075 | 0.868 ± 0.047 | 0.97 ± 0.048 | 0.99 ± 0.079 | 1.04 ± 0.056 | 0.947 ± 0.058
D6RAM1 and related entries (UniProt P31943) | 1.03 ± 0.0061 | 0.996 ± 0.042 | 1.03 ± 0.026 | 0.971 ± 0.022 | 0.9782 ± 0.0075 | 0.966 ± 0.029
D6RER5 and related entries (UniProt Q9NVA2) | 1.01 ± 0.024 | 1.005 ± 0.0071 | 0.964 ± 0.024 | 0.987 ± 0.023 | 0.9861 ± 0.0047 | 0.994 ± 0.025
B4DV51 and related entries (UniProt P62826) | 0.98 ± 0.046 | 0.956 ± 0.011 | 0.977 ± 0.076 | 1.1 ± 0.13 | 1.1 ± 0.065 | 1.12 ± 0.051
C9JEH3 and related entries (UniProt Q13685) | 1.04 ± 0.03 | 1.02 ± 0.032 | 1.04 ± 0.029 | 1.02 ± 0.029 | 1.01 ± 0.038 | 1.02 ± 0.037
B3KR61 and related entries (UniProt Q5TEU4) | 1.09 ± 0.097 | 1.1 ± 0.093 | 1.04 ± 0.028 | 1.02 ± 0.1 | 1.02 ± 0.083 | 1.06 ± 0.07
C9JLV4 and related entries (UniProt O14727) | 1.02 ± 0.053 | 0.939 ± 0.095 | 1.01 ± 0.017 | 1 ± 0.013 | 1.03 ± 0.02 | 0.994 ± 0.053
B7ZBM8 and related entries (UniProt O14662) | 0.982 ± 0.057 | 1.04 ± 0.036 | 0.998 ± 0.041 | 0.997 ± 0.041 | 0.969 ± 0.021 | 1.01 ± 0.019
B1AMS2 and related entries (UniProt Q14141) | 1.01 ± 0.023 | 1.04 ± 0.035 | 0.973 ± 0.049 | 1 ± 0.022 | 0.964 ± 0.039 | 0.974 ± 0.033
D6RF48 and related entries (UniProt Q9P2W9) | 1.01 ± 0.026 | 1.03 ± 0.032 | 0.97 ± 0.021 | 0.973 ± 0.059 | 0.956 ± 0.034 | 0.954 ± 0.015
B0QY95 and related entries (UniProt Q9NQG6+B0QY95) | 1.03 ± 0.03 | 0.995 ± 0.028 | 0.9979 ± 0.0077 | 1.01 ± 0.016 | 1.04 ± 0.019 | 1 ± 0.035
B5MCH7 and related entries (UniProt Q9Y6E2) | 0.975 ± 0.045 | 0.992 ± 0.048 | 0.953 ± 0.032 | 1 ± 0.046 | 1 ± 0.046 | 0.962 ± 0.06
B4DRN8 and related entries (UniProt Q5W0Z9) | 0.993 ± 0.0064 | 1 ± 0.012 | 0.987 ± 0.067 | 0.966 ± 0.016 | 0.957 ± 0.051 | 0.985 ± 0.048
C9J2V2 and related entries (UniProt Q9Y6K9) | 1.01 ± 0.032 | 1.1 ± 0.037 | 1.03 ± 0.035 | 0.989 ± 0.032 | 0.989 ± 0.07 | 0.99 ± 0.031
D3YTB5 and related entries (UniProt P51617) | 1.01 ± 0.016 | 1.01 ± 0.036 | 1.01 ± 0.02 | 1.01 ± 0.024 | 1.032 ± 0.0077 | 1.01 ± 0.01
FAM171A2 (UniProt A8MVW0) | 1 ± 0.012 | 1.01 ± 0.051 | 1.01 ± 0.013 | 1.05 ± 0.018 | 0.998 ± 0.027 | 1.019 ± 0.0036
C9JCC6 and related entries (UniProt Q14919) | 0.971 ± 0.14 | 1.04 ± 0.048 | 0.951 ± 0.098 | 0.903 ± 0.12 | 0.922 ± 0.08 | 0.903 ± 0.12
B8ZZU6 and related entries (UniProt P15336) | 0.998 ± 0.045 | 1 ± 0.091 | 0.986 ± 0.062 | 1.03 ± 0.035 | 1.05 ± 0.044 | 1.04 ± 0.059
C9JYN0 and related entries (UniProt Q16563) | 1.01 ± 0.015 | 1.06 ± 0.12 | 1.05 ± 0.042 | 1.12 ± 0.12 | 1.12 ± 0.057 | 1.14 ± 0.17
UNC119B (UniProt A6NIH7) | 1.04 ± 0.022 | 0.988 ± 0.029 | 1.01 ± 0.031 | 1.01 ± 0.061 | 0.994 ± 0.05 | 1.01 ± 0.05
B1AMW1 and related entries (UniProt P19256) | 0.974 ± 0.023 | 1.04 ± 0.023 | 0.9948 ± 0.0026 | 1.03 ± 0.059 | 1.005 ± 0.0083 | 1.01 ± 0.044
MYO1G (UniProt B0I1T2) | 1.14 ± 0.074 | 1.12 ± 0.11 | 1.27 ± 0.22 | 1.34 ± 0.3 | 1.44 ± 0.43 | 1.47 ± 0.46
C9J713 and related entries (UniProt Q96IZ7) | 1.07 ± 0.027 | 1.09 ± 0.073 | 1.04 ± 0.053 | 1.01 ± 0.038 | 1.02 ± 0.043 | 1.05 ± 0.044
B4DXZ6 and related entries (UniProt P51114) | 1.12 ± 0.029 | 1.17 ± 0.039 | 1.3 ± 0.055 | 1.43 ± 0.15 | 1.55 ± 0.2 | 1.62 ± 0.2
E5RGX5 and related entries (UniProt Q93045) | 1.03 ± 0.058 | 1.03 ± 0.036 | 0.926 ± 0.11 | 0.894 ± 0.024 | 0.857 ± 0.038 | 0.86 ± 0.11
D6RC04 and related entries (UniProt Q9Y6G5) | 0.97 ± 0.04 | 0.987 ± 0.037 | 0.999 ± 0.026 | 0.975 ± 0.04 | 0.988 ± 0.016 | 0.96 ± 0.018
C9J0I9 and related entries (UniProt Q86WB0) | 1.01 ± 0.011 | 1.02 ± 0.043 | 1.01 ± 0.035 | 1.02 ± 0.024 | 1.01 ± 0.071 | 1.01 ± 0.049

A few values from the list.
B4DXZ6 and related entries (UniProt P51114) | NP40-soluble protein abundance (concentration: 1mM): 1.12 ± 0.029
UNC119B (UniProt A6NIH7) | NP40-soluble protein abundance (concentration: 8mM): 0.994 ± 0.05
